PubChem BioAssay AID493014 (National Center for Advancing Translational Sciences (NCATS), 2011)
The list shows a part of the results. The main result of the screen is listed elsewhere. These columns were measured beside it and carry no call. Most of these compounds were active or inconclusive in the main read-out, so they are no random draw. The note in brackets gives the kind of curve behind each potency; many fits are weak.

Assay: qHTS Assay to Find Inhibitors of Chronic Active B-Cell Receptor Signaling
Conditions: ABC-DLBCL IkBa-CBG/CBR reporter, luminescence ratio (green luciferase fused to IkBa over red control in TMD8 lymphoma cells), 4 h
How it was run: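 Compounds up to 46 uM were incubated four hours with TMD8 cells whose green CBG68 luciferase is fused to IkappaBalpha; red CBR luminescence normalised the signal, and concentration-effect curves were fitted to fusion, red and ratio data.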

[1] = measured here: CBR red luminescence, cell number

SMILES | AC50 [1] | AC50 (measured here: IkBa-CBG green luminescence)
COc1ccc(Cn2c(O)c(/C=N/NC(=O)c3ccccc3)c(=O)[nH]c2=O)cc1 | 5.8 µM [falling, partial curve] | –
CCCCn1c(=O)c(C(=O)Nc2ccsc2C(=O)OC)c(O)c2ccccc21 | 10.3 µM [falling, partial curve] | –
c1ccc2c(N3CCNCC3)nsc2c1 | 0.891 µM [rising, full curve, poor fit] | –
Nc1ccccc1C#CC(=O)c1ccccc1 | 10 µM [falling, partial curve] | –
CC(=NCCc1ccccc1)c1c(O)n(C)c(=O)n(C)c1=O | 3.16 µM [falling, full curve, poor fit] | –
CSc1ccc(/C=C/c2nc3ccccc3c(=O)n2-c2cccc(Cl)c2C)cc1 | 35.5 µM [rising, single point] | –
O=S(=O)(c1ccc(O)cc1)c1ccc(O)cc1 | 35.5 µM [rising, single point] | –
Oc1ccccc1-[n+]1c(-c2ccccc2)cc(-c2ccccc2)cc1-c1ccccc1 | 25.9 µM [falling, partial curve] | –
CC/C(=N\NC(=O)c1ccccc1O)c1c(O)n(C2CCCCC2)c(=O)[nH]c1=O | 3.98 µM [falling, full curve] | –
C[C@]12CC[C@H]3[C@@H](CCC4=CC(=O)CC[C@@]43O)[C@@H]1CCC2=O | 3.55 µM [rising, full curve] | –
COC(=O)C1=C(c2ccc(OCc3ccccc3)cc2)C[C@@H]2CC[C@H]1N2C(=O)NCc1cccc(OC)c1 | 16.4 µM [falling, single point] | –
CCOC(=O)C(O)(c1ccc(NC(=O)c2ccco2)c(OC)c1)C(F)(F)F (stereo not drawn) | 29.1 µM [falling, single point] | –
CCCCC(=O)N/N=C/c1c(O)n(CC)c(=S)n(CC)c1=O | 16.4 µM [falling, partial curve, poor fit] | –
CCn1nc(/C=C/c2ccccc2)nc2c(=O)n(C)c(=O)nc1-2 | 20 µM [rising, partial curve, poor fit] | –
COc1ccc(CCNc2oc(-c3ccc(OC)c(OC)c3)nc2P(=O)(OC)OC)cc1OC | 0.517 µM [rising, full curve, poor fit] | –
COC(=O)c1nc(-c2ccc3c(n2)C(=O)C(N)=C(OC)C3=O)c(N)c(-c2ccc(OC)c(OC)c2O)c1C | 0.708 µM [rising, full curve, poor fit] | –
O=C1NC(=O)C(CCc2ccncc2)(CCc2ccncc2)C(=O)N1C1CCCCC1 | 7.94 µM [rising, partial curve, poor fit] | 3.98 µM [rising, partial curve, poor fit]

Whole records from above.
CCn1nc(/C=C/c2ccccc2)nc2c(=O)n(C)c(=O)nc1-2 is listed as AC50 [1]: 20 µM [rising, partial curve, poor fit]
c1ccc2c(N3CCNCC3)nsc2c1 is listed as AC50 [1]: 0.891 µM [rising, full curve, poor fit]
